No constants are given. Whether binding was seen depends on the method and setting. Binding seen in cells or lysates may run through a third protein. These calls come from enrichment with a bait or labelling near it, and not all partners need be listed.

The chains behind the UniProt entries cited, without tags or fusion partners.
UniProt Q15910: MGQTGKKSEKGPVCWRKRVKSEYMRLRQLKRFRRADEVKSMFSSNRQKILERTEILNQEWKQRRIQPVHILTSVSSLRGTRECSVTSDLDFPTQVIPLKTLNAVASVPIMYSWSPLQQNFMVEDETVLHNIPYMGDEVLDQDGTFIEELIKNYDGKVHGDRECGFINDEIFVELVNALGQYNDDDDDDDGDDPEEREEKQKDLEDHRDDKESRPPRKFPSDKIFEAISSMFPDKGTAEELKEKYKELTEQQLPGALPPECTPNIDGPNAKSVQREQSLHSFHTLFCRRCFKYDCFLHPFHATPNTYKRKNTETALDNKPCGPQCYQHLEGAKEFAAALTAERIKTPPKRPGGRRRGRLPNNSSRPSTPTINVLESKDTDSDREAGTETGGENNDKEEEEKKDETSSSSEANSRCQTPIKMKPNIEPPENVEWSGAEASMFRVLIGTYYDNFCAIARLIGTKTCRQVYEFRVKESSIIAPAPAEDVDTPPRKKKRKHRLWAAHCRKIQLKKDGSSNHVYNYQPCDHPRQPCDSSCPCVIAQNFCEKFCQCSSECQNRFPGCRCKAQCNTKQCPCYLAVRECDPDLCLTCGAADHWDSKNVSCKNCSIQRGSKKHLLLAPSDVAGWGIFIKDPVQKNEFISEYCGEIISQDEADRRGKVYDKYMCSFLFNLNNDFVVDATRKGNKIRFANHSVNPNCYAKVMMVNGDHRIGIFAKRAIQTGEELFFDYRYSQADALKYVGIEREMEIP

Binding data for two molecules are collected here from PMC6051995.

For this assay, the target named is FLAG-EZH2 (wild-type) (UniProt Q15910). Nature of the assay: affinity purification with mass spectrometry; whole cell lysates of MDA-MB-231 knockdown-rescue cells expressing FLAG vector, FLAG-EZH2 or FLAG-T367A; anti-FLAG antibody beads; on-bead digestion, LC-MS/MS; SAINT and FC scoring; three biological replicates.

B1: MLPH (protein, UniProt Q9BV36 1-600)
chain: MGKKLDLSKLTDEEAQHVLEVVQRDFDLRRKEEERLEALKGKIKKESSKRELLSDTAHLNETHCARCLQPYQLLVNSKRQCLECGLFTCKSCGRVHPEEQGWICDPCHLARVVKIGSLEWYYEHVKARFKRFGSAKVIRSLHGRLQGGAGPELISEERSGDSDQTDEDGEPGSEAQAQAQPFGSKKKRLLSVHDFDFEGDSDDSTQPQGHSLHLSSVPEARDSPQSLTDESCSEKAAPHKAEGLEEADTGASGCHSHPEEQPTSISPSRHGALAELCPPGGSHRMALGTAAALGSNVIRNEQLPLQYLADVDTSDEESIRAHVMASHHSKRRGRASSESQIFELNKHISAVECLLTYLENTVVPPLAKGLGAGVRTEADVEEEALRRKLEELTSNVSDQETSSEEEEAKDEKAEPNRDKSVGPLPQADPEVGTAAHQTNRQEKSPQDPGDPVQYNRTTDEELSELEDRVAVTASEVQQAESEVSDIESRIAALRAAGLTVKPSGKPRRKSNLPIFLPRVAGKLGKRPEDPNADPSSEAKAMAVPYLLRRKFSNSLKSQGKDDDSFDRKSVYRGSLTQRNPNARKGMASHTFAKPVVAHQS
Turning to B1, the binding entry is “binds”.

B2: EPS8 related protein 2 (protein, UniProt Q9H6S3 1-715)
chain: MSQSGAVSCCPGATNGSLGRSDGVAKMSPKDLFEQRKKYSNSNVIMHETSQYHVQHLATFIMDKSEAITSVDDAIRKLVQLSSKEKIWTQEMLLQVNDQSLRLLDIESQEELEDFPLPTVQRSQTVLNQLRYPSVLLLVCQDSEQSKPDVHFFHCDEVEAELVHEDIESALADCRLGKKMRPQTLKGHQEKIRQRQSILPPPQGPAPIPFQHRGGDSPEAKNRVGPQVPLSEPGFRRRESQEEPRAVLAQKIEKETQILNCALDDIEWFVARLQKAAEAFKQLNQRKKGKKKGKKAPAEGVLTLRARPPSEGEFIDCFQKIKLAINLLAKLQKHIQNPSAAELVHFLFGPLDLIVNTCSGPDIARSVSCPLLSRDAVDFLRGHLVPKEMSLWESLGESWMRPRSEWPREPQVPLYVPKFHSGWEPPVDVLQEAPWEVEGLASAPIEEVSPVSRQSIRNSQKHSPTSEPTPPGDALPPVSSPHTHRGYQPTPAMAKYVKILYDFTARNANELSVLKDEVLEVLEDGRQWWKLRSRSGQAGYVPCNILGEARPEDAGAPFEQAGQKYWGPASPTHKLPPSFPGNKDELMQHMDEVNDELIRKISNIRAQPQRHFRVERSQPVSQPLTYESGPDEVRAWLEAKAFSPRIVENLGILTGPQLFSLNKEELKKVCGEEGVRVYSQLTMQKAFLEKQQSGSELEELMNKFHSMNQRRGEDS
Consider B2, for which the binding result is “binds”.
